Chains of the proteins cited; added tags and fusions are not shown.
UniProt Q9NR09, whole entry: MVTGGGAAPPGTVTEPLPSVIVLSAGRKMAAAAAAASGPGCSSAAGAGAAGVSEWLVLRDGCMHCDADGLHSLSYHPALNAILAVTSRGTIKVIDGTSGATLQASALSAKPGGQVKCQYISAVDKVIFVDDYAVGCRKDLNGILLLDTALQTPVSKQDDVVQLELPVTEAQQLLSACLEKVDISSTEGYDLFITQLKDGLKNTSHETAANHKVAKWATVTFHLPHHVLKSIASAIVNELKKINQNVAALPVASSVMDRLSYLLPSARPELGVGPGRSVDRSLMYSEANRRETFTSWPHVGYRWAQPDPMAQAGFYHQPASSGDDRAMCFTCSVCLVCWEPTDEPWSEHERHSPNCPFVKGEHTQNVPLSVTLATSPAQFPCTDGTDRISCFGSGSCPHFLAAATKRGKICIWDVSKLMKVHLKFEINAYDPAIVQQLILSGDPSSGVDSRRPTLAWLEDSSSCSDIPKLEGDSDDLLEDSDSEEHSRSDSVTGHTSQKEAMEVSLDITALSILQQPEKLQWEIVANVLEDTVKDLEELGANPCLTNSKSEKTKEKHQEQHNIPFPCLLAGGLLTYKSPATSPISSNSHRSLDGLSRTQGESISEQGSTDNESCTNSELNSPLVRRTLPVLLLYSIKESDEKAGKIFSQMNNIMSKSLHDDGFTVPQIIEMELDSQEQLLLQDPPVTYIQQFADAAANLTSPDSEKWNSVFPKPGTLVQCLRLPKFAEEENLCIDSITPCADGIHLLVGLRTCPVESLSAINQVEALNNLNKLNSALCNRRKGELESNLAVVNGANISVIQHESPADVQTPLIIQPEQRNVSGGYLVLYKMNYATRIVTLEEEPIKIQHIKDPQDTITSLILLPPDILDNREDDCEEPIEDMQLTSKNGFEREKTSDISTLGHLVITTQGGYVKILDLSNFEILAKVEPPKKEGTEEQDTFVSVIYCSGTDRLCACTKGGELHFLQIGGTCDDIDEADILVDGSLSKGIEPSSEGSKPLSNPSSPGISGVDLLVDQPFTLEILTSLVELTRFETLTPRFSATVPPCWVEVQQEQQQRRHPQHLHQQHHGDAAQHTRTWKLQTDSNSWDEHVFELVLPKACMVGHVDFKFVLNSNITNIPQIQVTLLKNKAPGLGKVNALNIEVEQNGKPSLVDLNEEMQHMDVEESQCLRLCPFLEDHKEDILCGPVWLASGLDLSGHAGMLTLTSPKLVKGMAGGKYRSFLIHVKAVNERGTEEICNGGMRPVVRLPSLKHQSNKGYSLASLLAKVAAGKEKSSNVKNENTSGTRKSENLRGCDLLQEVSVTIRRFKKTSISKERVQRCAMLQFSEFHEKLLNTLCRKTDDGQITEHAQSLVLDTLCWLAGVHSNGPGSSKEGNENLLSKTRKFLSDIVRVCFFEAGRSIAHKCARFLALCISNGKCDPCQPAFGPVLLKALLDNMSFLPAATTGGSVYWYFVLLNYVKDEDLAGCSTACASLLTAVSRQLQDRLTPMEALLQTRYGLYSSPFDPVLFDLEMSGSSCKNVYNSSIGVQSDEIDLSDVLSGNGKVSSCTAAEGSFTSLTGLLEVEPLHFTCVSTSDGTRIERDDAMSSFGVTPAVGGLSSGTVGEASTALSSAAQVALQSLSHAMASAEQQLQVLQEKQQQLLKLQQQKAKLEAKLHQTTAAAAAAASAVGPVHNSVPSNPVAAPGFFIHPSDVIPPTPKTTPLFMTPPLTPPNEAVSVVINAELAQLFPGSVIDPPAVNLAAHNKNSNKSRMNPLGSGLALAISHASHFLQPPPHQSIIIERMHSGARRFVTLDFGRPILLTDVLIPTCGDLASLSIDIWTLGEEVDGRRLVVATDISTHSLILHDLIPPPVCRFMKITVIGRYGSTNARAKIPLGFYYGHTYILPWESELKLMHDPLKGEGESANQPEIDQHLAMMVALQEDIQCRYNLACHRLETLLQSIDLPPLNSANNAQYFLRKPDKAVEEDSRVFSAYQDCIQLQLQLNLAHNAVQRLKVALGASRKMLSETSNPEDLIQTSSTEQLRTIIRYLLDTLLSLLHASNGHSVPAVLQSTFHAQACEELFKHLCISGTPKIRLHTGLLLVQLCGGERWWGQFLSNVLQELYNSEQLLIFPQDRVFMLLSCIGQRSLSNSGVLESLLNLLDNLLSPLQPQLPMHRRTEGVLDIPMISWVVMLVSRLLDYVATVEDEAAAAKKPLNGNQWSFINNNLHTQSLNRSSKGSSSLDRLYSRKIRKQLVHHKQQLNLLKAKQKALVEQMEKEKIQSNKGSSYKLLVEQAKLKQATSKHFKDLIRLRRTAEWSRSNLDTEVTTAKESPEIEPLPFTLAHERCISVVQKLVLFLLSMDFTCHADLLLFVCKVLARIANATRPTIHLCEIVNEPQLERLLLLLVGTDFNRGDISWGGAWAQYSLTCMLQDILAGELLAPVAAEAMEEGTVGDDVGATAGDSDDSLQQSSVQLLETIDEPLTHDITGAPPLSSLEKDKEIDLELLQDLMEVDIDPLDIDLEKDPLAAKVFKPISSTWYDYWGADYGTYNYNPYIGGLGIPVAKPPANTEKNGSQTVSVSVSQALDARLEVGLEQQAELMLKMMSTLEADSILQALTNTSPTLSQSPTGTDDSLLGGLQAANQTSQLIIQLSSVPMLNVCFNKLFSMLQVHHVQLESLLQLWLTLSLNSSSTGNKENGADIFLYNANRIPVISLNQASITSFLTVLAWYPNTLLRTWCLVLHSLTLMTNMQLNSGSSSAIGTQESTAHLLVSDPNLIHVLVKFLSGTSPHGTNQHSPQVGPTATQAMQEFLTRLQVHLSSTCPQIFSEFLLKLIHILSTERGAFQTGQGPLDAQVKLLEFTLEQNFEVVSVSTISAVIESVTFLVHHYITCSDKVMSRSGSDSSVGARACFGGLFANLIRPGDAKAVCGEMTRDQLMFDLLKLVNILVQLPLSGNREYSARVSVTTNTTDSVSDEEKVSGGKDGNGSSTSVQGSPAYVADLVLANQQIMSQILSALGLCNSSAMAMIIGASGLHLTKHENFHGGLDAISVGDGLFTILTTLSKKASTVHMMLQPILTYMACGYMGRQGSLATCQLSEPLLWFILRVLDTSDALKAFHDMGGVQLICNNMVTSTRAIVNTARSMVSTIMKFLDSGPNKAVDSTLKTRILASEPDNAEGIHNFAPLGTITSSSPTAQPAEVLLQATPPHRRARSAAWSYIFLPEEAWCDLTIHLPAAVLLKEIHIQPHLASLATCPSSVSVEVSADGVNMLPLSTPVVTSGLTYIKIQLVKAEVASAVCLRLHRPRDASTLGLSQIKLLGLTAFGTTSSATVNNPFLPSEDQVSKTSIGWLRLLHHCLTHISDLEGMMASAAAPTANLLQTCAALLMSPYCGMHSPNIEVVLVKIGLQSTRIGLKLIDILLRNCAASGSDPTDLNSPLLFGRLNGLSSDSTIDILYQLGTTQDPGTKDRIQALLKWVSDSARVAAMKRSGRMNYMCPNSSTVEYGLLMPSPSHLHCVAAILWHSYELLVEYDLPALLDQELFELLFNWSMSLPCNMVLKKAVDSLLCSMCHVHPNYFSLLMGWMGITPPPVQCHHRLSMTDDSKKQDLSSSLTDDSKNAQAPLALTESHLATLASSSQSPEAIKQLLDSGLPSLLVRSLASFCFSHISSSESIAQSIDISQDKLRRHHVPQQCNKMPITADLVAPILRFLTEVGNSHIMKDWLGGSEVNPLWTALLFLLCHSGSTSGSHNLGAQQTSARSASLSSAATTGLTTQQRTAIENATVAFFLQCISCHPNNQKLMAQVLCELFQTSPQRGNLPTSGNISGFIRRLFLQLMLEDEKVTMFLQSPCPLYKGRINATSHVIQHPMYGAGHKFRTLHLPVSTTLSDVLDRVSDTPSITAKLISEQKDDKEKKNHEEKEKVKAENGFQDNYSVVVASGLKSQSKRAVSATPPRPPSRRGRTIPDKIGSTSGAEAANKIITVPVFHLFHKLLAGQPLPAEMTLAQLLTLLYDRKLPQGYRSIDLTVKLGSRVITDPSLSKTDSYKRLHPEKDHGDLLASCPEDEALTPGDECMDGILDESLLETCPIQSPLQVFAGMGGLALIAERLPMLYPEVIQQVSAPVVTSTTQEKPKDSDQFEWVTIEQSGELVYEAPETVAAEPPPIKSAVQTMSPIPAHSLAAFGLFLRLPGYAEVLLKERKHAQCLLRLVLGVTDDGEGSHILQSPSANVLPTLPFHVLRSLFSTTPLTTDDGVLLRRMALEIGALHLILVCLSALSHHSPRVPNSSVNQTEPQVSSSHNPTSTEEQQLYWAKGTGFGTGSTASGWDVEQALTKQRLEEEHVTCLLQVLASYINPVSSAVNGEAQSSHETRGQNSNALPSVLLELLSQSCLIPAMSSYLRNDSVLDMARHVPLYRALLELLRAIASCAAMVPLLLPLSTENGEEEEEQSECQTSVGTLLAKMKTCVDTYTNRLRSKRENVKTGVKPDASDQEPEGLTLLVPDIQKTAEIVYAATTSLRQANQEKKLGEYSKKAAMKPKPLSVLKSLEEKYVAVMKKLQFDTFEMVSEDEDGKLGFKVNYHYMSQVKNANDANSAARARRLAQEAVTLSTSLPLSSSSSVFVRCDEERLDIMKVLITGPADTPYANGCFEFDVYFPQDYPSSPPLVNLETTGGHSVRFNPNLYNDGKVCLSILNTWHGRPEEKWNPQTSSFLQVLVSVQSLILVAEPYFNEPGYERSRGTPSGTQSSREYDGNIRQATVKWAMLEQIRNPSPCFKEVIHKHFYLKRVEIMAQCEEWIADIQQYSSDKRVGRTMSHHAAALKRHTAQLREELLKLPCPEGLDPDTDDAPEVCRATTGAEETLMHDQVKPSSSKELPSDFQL

According to doi:10.1101/2022.08.30.505823 (bioRxiv, 2022):

Assays:
[1] = target: BIRC6 (human, wild type, recombinant) (human) (UniProt Q9NR09); assay: cross-linking
[2] = target: BIRC6 (human, wild type, recombinant) (human) (UniProt Q9NR09); assay: cryo-EM structure

SMAC (from UniProt Q9NR28)
binding [1]: binds | binding [2]: binds

No constants are given. Whether binding was seen depends on the method and setting. A result given as binding can be weak or reduced; the word gives no strength.
